# From PubChem BioAssay AID504467 (National Center for Advancing Translational Sciences (NCATS), 2011)
# About 7,700 (2.3%) of roughly 330,000 compounds were called active. The inconclusive results got no clear call from the source; some entries with a clear call stand among them for comparison. Calls follow the shape of the dose curve; as a rule, active = well fitted inhibition curve with a large enough effect; inconclusive = small, poorly fitted or top-dose-only effect, or effect the other way; inactive = flat fitted curve, though single readings scatter. A potency beside an inconclusive call is a rough fit, not a confirmed value.
# Assay: qHTS screen for small molecules that inhibit ELG1-dependent DNA repair in human embryonic kidney (HEK293T) cells expressing luciferase-tagged ELG1; also: nearly all actives have a fitted effect of over 55% in size
# Details: HEK293T ELG1-luciferase reporter, luminescence, 16 h, DNA damage induced by 5-fluorouridine; activity change, negative = inhibition: at 46.1 µM (top of the series)
# How it was run: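 Reporter activity after DNA damage by 5-fluorouridine is monitored. Compound-treated cells incubate 16 hr at 37 °C, then ONE-Glo is added for 30 min before luminescence reading.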
# % is scaled to controls: 0 for no effect and ±100 for the full control effect; potency is read from the fitted curve at half-maximal effect.
SMILES,Potency,"activity change, negative = inhibition"
CCCCCCSc1ccc(-c2nc3ccc(Cl)cn3c2NC2CCCCC2)cc1,"inconclusive: 18.3 µM [activator, partial curve, poor fit]",
O=C(Nc1sc2c(c1C(=O)NCC1CCCO1)CCCC2)c1cccs1 (stereo not given),"inconclusive: 29.1 µM [inhibitor, single point]",
O=C(CCC(=O)N1CCc2ccccc2C1)N1CCN(S(=O)(=O)c2ccccc2)CC1,"inconclusive: 8.2 µM [inhibitor, partial curve, poor fit]",
Cc1ccc(NC(=O)COc2ccc(-n3cnnn3)cc2)cc1C,,inactive: 26.2%
N=C(N)c1ccc(N)cc1,"inconclusive: 17.8 µM [activator, partial curve, poor fit]",
O=[N+]([O-])c1ccc(-c2csc(NN=C3CCCC3)n2)cc1,,inactive: 15.1%
Cc1cc(C)cc(NC(=O)Nc2ccc(N3CCCCC3)cc2)c1,"inconclusive: 14.6 µM [activator, partial curve]",
COc1ccc2cc(-c3ccsc3)ncc2c1,"inconclusive: 9.2 µM [activator, partial curve]",
COc1ccccc1NC1=CC(=O)CC(c2ccccc2)C1 (stereo not given),"inconclusive: 2.59 µM [inhibitor, partial curve]",
N#CC1(NC(=O)CSc2nnc(Nc3ccccc3F)s2)CCCC1,"inconclusive: 10.3 µM [activator, partial curve, poor fit]",
COc1ccccc1N1CCN(C(=O)C2CCCN(S(=O)(=O)c3ccc4c(c3)CCCN4C(C)=O)C2)CC1 (stereo not given),"inconclusive: 29.1 µM [inhibitor, single point]",
CCCCn1nc(C(=O)NCC(=O)Nc2c(C)cccc2C)c2ccccc2c1=O,,inactive: -9.28%
CC(C)C1=CC(=NS(=O)(=O)c2cccc([N+](=O)[O-])c2)C=C(C(C)C)C1=O,,inactive: -9.52%
Cc1cc(N2CCN(C(=O)/C=C/C(=O)O)CC2)c2ccccc2n1,,inactive: 21.4%
CCSc1nc(-c2cccs2)nc2ccccc12,,inactive: -14.8%
O=C(NC1CCCC1)c1ccc(CN2CCOCC2)cc1,"inconclusive: 18.4 µM [activator, single point]",
COc1ccc(NC(=O)/C(Cl)=C(/Cl)S(=O)(=O)Cc2ccc(C)cc2)cn1,"inconclusive: 29.1 µM [inhibitor, single point]",
CC(NC(=O)c1ccc(Cn2cc([N+](=O)[O-])cn2)cc1)c1ccccc1 (stereo not given),"inconclusive: 29.1 µM [inhibitor, single point]",
COc1ccc(C(=O)C2CCCN(C(=O)c3n[nH]c4c3CCCC4)C2)cc1OC (stereo not given),"inconclusive: 29.1 µM [inhibitor, single point]",
CSc1cccc(N2CC(C(=O)NCCN3C(=O)S/C(=C\c4cccnc4)C3=O)CC2=O)c1 (stereo not given),"inconclusive: 0.411 µM [inhibitor, partial curve, poor fit]",
COc1cccc2cc(C(=O)NC(C)c3ccccc3)c(=O)oc12 (stereo not given),,inactive: 18.7%
Cc1ccc(NC(=O)COc2cccc(/C=C3\SC(=S)N(CCC(=O)O)C3=O)c2)cc1Cl,"inconclusive: 23.1 µM [activator, partial curve, poor fit]",
CSc1ncccc1C(=O)OCC(=O)Nc1ccc(N2CCOCC2)cc1,,inactive: 9.02%
CCn1c(=S)sc2c(=O)n(CC(=O)Nc3cc(OC)ccc3OC)c(C)nc21,"inconclusive: 20.6 µM [inhibitor, single point]",

SMILES,Potency,"activity change, negative = inhibition"
COc1ccc2c(c1)C(=O)C(=O)N2,"inconclusive: 25.9 µM [activator, single point]",
O=C(CSc1nc2ncc(Cl)cc2[nH]1)NCCc1ccc(F)cc1,"inconclusive: 16.4 µM [inhibitor, partial curve]",
CCOc1ccc(N/C(C)=C/C(=O)c2ccc3c(c2)OCCO3)cc1,"inconclusive: 9.2 µM [activator, partial curve]",
O=C(Nc1ccc(Cl)cc1)c1ccc(S(=O)(=O)N2CCOCC2)cc1,"inconclusive: 23.1 µM [inhibitor, single point]",
CCn1c(NC(=O)c2ccc(COc3ccc(C)cc3[N+](=O)[O-])o2)nc2ccccc21,"inconclusive: 23.1 µM [inhibitor, partial curve]",
Cc1ccc(CN2CC(C(=O)N3CCN(S(=O)(=O)c4ccc(C(C)C)cc4)CC3)CC2=O)cc1 (stereo not given),active: 11.6 µM,
Cc1ccc2nc(-c3ccccc3)c(CN3CCSCC3)n2c1,,inactive: -12.6%
NC(=O)c1nsc(C(=O)N(c2ccccc2)C(C(=O)NCc2ccc(F)cc2)c2ccco2)c1N (stereo not given),"inconclusive: 29.1 µM [inhibitor, single point]",
C/C(=N\Nc1cccc(C(=O)O)c1)c1ccc(Cl)s1,"inconclusive: 9.2 µM [activator, partial curve]",
O=C(Nc1ccc(Cl)cc1)N1CCCN(Cc2ccccc2F)C1,,inactive: -4.8%
Cc1ccc(-c2cc(C(=O)N/N=C/c3c(C)nn(C)c3C)c3ccccc3n2)cc1C,"inconclusive: 29.1 µM [inhibitor, single point]",
C#CCOCCOCCOCCNc1nc(N2CCN(C(=O)CCCCCCCCCCNC(=O)[C@H](CCCCN)n3cc(CCO)nn3)CC2)nc(N2CCN(C(=O)CCCCCCCCCCNC(=O)[C@H](CCCCN)n3cc(C[C@@H](C)CC)nn3)CC2)n1,"inconclusive: 10 µM [inhibitor, single point]",
Cn1nc(CC(=O)Nc2ccc(N3CCN(C(=O)OC(C)(C)C)CC3)cc2)c2ccccc2c1=O,"inconclusive: 1.03 µM [inhibitor, full curve]",
Cc1ccc(Cn2ccc(NC(=O)c3cc(C)on3)n2)cc1,"inconclusive: 18.4 µM [activator, partial curve]",
COc1cc(/C=C(/C(=O)c2cccs2)c2nc3ccccc3[nH]2)ccc1O,"inconclusive: 18.4 µM [inhibitor, single point]",
C=CCNC(=O)C1CC(=O)N(c2ccc(OCc3ccc(F)cc3)cc2)C1 (stereo not given),"inconclusive: 4.61 µM [activator, partial curve]",
CCn1c(=O)cc(SCC(=O)NCC2CCCO2)c2ccccc21 (stereo not given),"inconclusive: 20.6 µM [activator, partial curve]",
COCCCNC(=S)NNC(=O)Cn1nc(C)c(Br)c1C,,inactive: 4.02%
Cc1ccc(-c2nc(CS(=O)CC(=O)NCc3ccccc3)c(C)o2)cc1 (stereo not given),,inactive: 0.0124%
Fc1ccccc1Cc1noc(CN(Cc2ccccn2)CC2CCCO2)n1 (stereo not given),,inactive: 1.04%
O=C(NNc1nc2ccccc2s1)Nc1ccccc1,"inconclusive: 5.17 µM [activator, partial curve]",
OCCC1CN(Cc2cnc(-c3ccc(Cl)cc3)nc2)CCN1C1CCCC1 (stereo not given),active: 6.51 µM,
CC1(C)Cc2ccccc2C(=NC(Cc2ccccc2)C(=O)O)N1 (stereo not given),,inactive: -14.1%
Nc1n[nH]c2c1C1(CCCC1)Cc1ccccc1-2,"inconclusive: 20.6 µM [inhibitor, single point]",

# An excerpt of these results, tab-delimited.
SMILES	Potency	activity change, negative = inhibition
N=C(N)c1ccc(N)cc1	inconclusive: 17.8 µM [activator, partial curve, poor fit]	
O=[N+]([O-])c1ccc(-c2csc(NN=C3CCCC3)n2)cc1		inactive: 15.1%
Cc1cc(C)cc(NC(=O)Nc2ccc(N3CCCCC3)cc2)c1	inconclusive: 14.6 µM [activator, partial curve]	
COc1ccccc1NC1=CC(=O)CC(c2ccccc2)C1 (stereo not given)	inconclusive: 2.59 µM [inhibitor, partial curve]	
N#CC1(NC(=O)CSc2nnc(Nc3ccccc3F)s2)CCCC1	inconclusive: 10.3 µM [activator, partial curve, poor fit]	
COc1ccccc1N1CCN(C(=O)C2CCCN(S(=O)(=O)c3ccc4c(c3)CCCN4C(C)=O)C2)CC1 (stereo not given)	inconclusive: 29.1 µM [inhibitor, single point]	
CCCCn1nc(C(=O)NCC(=O)Nc2c(C)cccc2C)c2ccccc2c1=O		inactive: -9.28%
CCSc1nc(-c2cccs2)nc2ccccc12		inactive: -14.8%
CSc1ncccc1C(=O)OCC(=O)Nc1ccc(N2CCOCC2)cc1		inactive: 9.02%
COc1ccc2c(c1)C(=O)C(=O)N2	inconclusive: 25.9 µM [activator, single point]	
O=C(CSc1nc2ncc(Cl)cc2[nH]1)NCCc1ccc(F)cc1	inconclusive: 16.4 µM [inhibitor, partial curve]	
O=C(Nc1ccc(Cl)cc1)c1ccc(S(=O)(=O)N2CCOCC2)cc1	inconclusive: 23.1 µM [inhibitor, single point]	
Cc1ccc2nc(-c3ccccc3)c(CN3CCSCC3)n2c1		inactive: -12.6%
Cc1ccc(-c2cc(C(=O)N/N=C/c3c(C)nn(C)c3C)c3ccccc3n2)cc1C	inconclusive: 29.1 µM [inhibitor, single point]	
C#CCOCCOCCOCCNc1nc(N2CCN(C(=O)CCCCCCCCCCNC(=O)[C@H](CCCCN)n3cc(CCO)nn3)CC2)nc(N2CCN(C(=O)CCCCCCCCCCNC(=O)[C@H](CCCCN)n3cc(C[C@@H](C)CC)nn3)CC2)n1	inconclusive: 10 µM [inhibitor, single point]	
Cc1ccc(Cn2ccc(NC(=O)c3cc(C)on3)n2)cc1	inconclusive: 18.4 µM [activator, partial curve]	
COc1cc(/C=C(/C(=O)c2cccs2)c2nc3ccccc3[nH]2)ccc1O	inconclusive: 18.4 µM [inhibitor, single point]	
CCn1c(=O)cc(SCC(=O)NCC2CCCO2)c2ccccc21 (stereo not given)	inconclusive: 20.6 µM [activator, partial curve]	
COCCCNC(=S)NNC(=O)Cn1nc(C)c(Br)c1C		inactive: 4.02%
Cc1ccc(-c2nc(CS(=O)CC(=O)NCc3ccccc3)c(C)o2)cc1 (stereo not given)		inactive: 0.0124%
O=C(NNc1nc2ccccc2s1)Nc1ccccc1	inconclusive: 5.17 µM [activator, partial curve]	

# (further entries)

SMILES,Potency,"activity change, negative = inhibition"
O=C(COC(=O)c1cncc(Br)c1)Nc1ccc(F)c(F)c1F,"inconclusive: 18.3 µM [activator, single point]",
Cc1ccc(S(=O)(=O)N2CCN(C(=O)Cn3c(=O)cnc4ccccc43)CC2)cc1,,inactive: -4.6%
CC(C)NS(=O)(=O)c1ccc(CCC(=O)Nc2ccc3c(c2)OCCO3)cc1,"inconclusive: 20.6 µM [activator, single point]",
CCOC(=O)N1CCC(NS(=O)(=O)c2ccc(C)c(Cl)c2)CC1,active: 16.4 µM,
Cc1nc2c3ccccc3nc(SCC(=O)c3ccc(Cl)cc3)n2n1,,inactive: -20.2%
Cc1ccc2c(c1)c1cccc3c1n2CCN3CCC(N)=O,"inconclusive: 9.2 µM [activator, partial curve]",
O=C(NCC(=O)N1CCCC1)c1cccs1,"inconclusive: 17.8 µM [activator, single point]",
CCOC(=O)c1sc(=NC(=O)CCSc2ccccc2)n(C)c1C,"inconclusive: 16.4 µM [activator, partial curve]",
Cc1ccc(C2CC(c3ccccc3)=NN2c2ccccc2)o1 (stereo not given),"inconclusive: 20.6 µM [activator, single point]",
CCOC(=O)CCC(=O)NNC(=O)c1ccc(NC(=O)c2ccccc2)cc1,,inactive: 26.9%
O=C(NC1CCCc2ccccc21)c1ccc(Br)cc1 (stereo not given),"inconclusive: 29.1 µM [inhibitor, single point]",
COC(=O)c1ccc(OCCOc2ccccc2C)cc1,,inactive: 10.9%
N/C(=N\OC(=O)c1ccc(Br)o1)c1ccccn1,"inconclusive: 1.64 µM [activator, full curve]",
CCOc1ccc(N(CC(=O)NCc2cccnc2)S(=O)(=O)c2ccc(F)cc2)cc1,,inactive: -3.04%
C/C(=N/NC(=O)c1ccc(Br)s1)c1cccnc1,"inconclusive: 8.2 µM [activator, partial curve]",
Cc1ccc2[nH]c(CNC(=O)c3ccccc3F)cc2c1,"inconclusive: 23.1 µM [activator, partial curve]",
Clc1ccc(OCc2nnc(-c3ccccc3Br)o2)c(Cl)c1,"inconclusive: 13 µM [activator, partial curve]",
Cc1cc2cc3c(cc2nc1SCC(=O)N1c2ccccc2CC1C)OCO3 (stereo not given),"inconclusive: 25.9 µM [inhibitor, single point]",
CCc1ccc(C2=C/C(=C/c3cccnc3)C(=O)O2)cc1,"inconclusive: 16.4 µM [activator, single point]",
CCCCC(=O)Nc1nc2ccc(C(=O)OC)cc2s1,"inconclusive: 11.6 µM [activator, partial curve]",
COc1cc(/C=N/NC(=O)CSc2cc(C)c(Br)cc2C)ccc1O,active: 16.4 µM,
COc1cc(C(=O)Nc2ccncc2)c([N+](=O)[O-])cc1OC,,inactive: -25.5%
